Measured values published in the supplement of paper PMC7661543.
± gives the standard deviation of the averaged measurements. Differences between knockout arms are mostly noise.

System: BT-20
Test: relative cell number vs DMSO control (72 h) (% of DMSO); higher = less growth inhibition (more cells)
Method: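 QMAP-Seq: a pool of 5 breast cancer cell lines (ZR-75-1, SKBR3, HCC-38, MDA-MB-231, BT-20), each carrying 12 doxycycline-inducible Cas9 sgRNA perturbations (11 knockouts plus non-targeting sgNT), was treated with compounds for 72 h at four 10-fold doses (10 nM-10 uM or 1 nM-1 uM range). Barcodes were amplified and sequenced, and cell number was interpolated from 293T spike-in standard curves. The result is expressed as % of the median of DMSO wells. Two biological replicates.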

Cc1ccc(S(=O)(=O)OCC(=O)Nc2ccc(C(=O)O)c(O)c2)cc1
Settings | relative cell number
sgRNA knockout: sgATF3, 10 nM | 113 ± 8.1
sgRNA knockout: sgATF3, 100 nM | 88.6 ± 6
sgRNA knockout: sgATF3, 1000 nM | 99.9 ± 7.4
sgRNA knockout: sgATF3, 10000 nM | 89.31 ± 0.67
sgRNA knockout: sgATF4, 10 nM | 109 ± 15
sgRNA knockout: sgATF4, 100 nM | 103 ± 5.1
sgRNA knockout: sgATF4, 1000 nM | 110 ± 9.4
sgRNA knockout: sgATF4, 10000 nM | 97.2 ± 3.5
sgRNA knockout: sgATF6, 10 nM | 107 ± 16
sgRNA knockout: sgATF6, 100 nM | 88.3 ± 26
sgRNA knockout: sgATF6, 1000 nM | 106 ± 12
sgRNA knockout: sgATF6, 10000 nM | 91 ± 1.7
sgRNA knockout: sgATG7, 10 nM | 101 ± 31
sgRNA knockout: sgATG7, 100 nM | 92.4 ± 4.7
sgRNA knockout: sgATG7, 1000 nM | 92.6 ± 1.6
sgRNA knockout: sgATG7, 10000 nM | 99.9 ± 2.6
sgRNA knockout: sgERN1, 10 nM | 100 ± 24
sgRNA knockout: sgERN1, 100 nM | 97.3 ± 3.2
sgRNA knockout: sgERN1, 1000 nM | 102 ± 4.4
sgRNA knockout: sgERN1, 10000 nM | 82.1 ± 7.3
sgRNA knockout: sgHSF1, 10 nM | 109 ± 7.2
sgRNA knockout: sgHSF1, 100 nM | 99.4 ± 13
sgRNA knockout: sgHSF1, 1000 nM | 103 ± 5.5
sgRNA knockout: sgHSF1, 10000 nM | 81.5 ± 11
sgRNA knockout: sgHSF2, 10 nM | 117 ± 21
sgRNA knockout: sgHSF2, 100 nM | 79.9 ± 1.2
sgRNA knockout: sgHSF2, 1000 nM | 91 ± 6.2
sgRNA knockout: sgHSF2, 10000 nM | 96.5 ± 17
sgRNA knockout: sgKEAP1, 10 nM | 96.2 ± 6.4
sgRNA knockout: sgKEAP1, 100 nM | 96.1 ± 2.4
sgRNA knockout: sgKEAP1, 1000 nM | 90.61 ± 0.12
sgRNA knockout: sgKEAP1, 10000 nM | 88.3 ± 9.1
sgRNA knockout: sgNFE2L2, 10 nM | 111 ± 19
sgRNA knockout: sgNFE2L2, 100 nM | 96.7 ± 9.9
sgRNA knockout: sgNFE2L2, 1000 nM | 113 ± 7.1
sgRNA knockout: sgNFE2L2, 10000 nM | 94.5 ± 10
sgRNA knockout: sgSLC35F2, 10 nM | 108 ± 38
sgRNA knockout: sgSLC35F2, 100 nM | 96.4 ± 11
sgRNA knockout: sgSLC35F2, 1000 nM | 93.1 ± 14
sgRNA knockout: sgSLC35F2, 10000 nM | 105 ± 9.8
sgRNA knockout: sgXBP1, 10 nM | 114 ± 25
sgRNA knockout: sgXBP1, 100 nM | 101 ± 23
sgRNA knockout: sgXBP1, 1000 nM | 104 ± 11
sgRNA knockout: sgXBP1, 10000 nM | 98 ± 11

Cc1nc(Nc2n[nH]c3c2CN(C(=O)N[C@H](CN(C)C)c2ccccc2)C3(C)C)c2sccc2n1
Settings | relative cell number
sgRNA knockout: sgATF3, 10 nM | 72.2 ± 5
sgRNA knockout: sgATF3, 100 nM | 53.8 ± 2.4
sgRNA knockout: sgATF3, 1000 nM | 35.6 ± 3.8
sgRNA knockout: sgATF3, 10000 nM | 14.1 ± 1.9
sgRNA knockout: sgATF4, 10 nM | 62.7 ± 14
sgRNA knockout: sgATF4, 100 nM | 56.3 ± 0.87
sgRNA knockout: sgATF4, 1000 nM | 33.1 ± 1.6
sgRNA knockout: sgATF4, 10000 nM | 14.2 ± 3.1
sgRNA knockout: sgATF6, 10 nM | 75.2 ± 1.8
sgRNA knockout: sgATF6, 100 nM | 52.6 ± 2.7
sgRNA knockout: sgATF6, 1000 nM | 28.4 ± 3.9
sgRNA knockout: sgATF6, 10000 nM | 14.7 ± 9.1
sgRNA knockout: sgATG7, 10 nM | 69.6 ± 2.5
sgRNA knockout: sgATG7, 100 nM | 62.6 ± 8.7
sgRNA knockout: sgATG7, 1000 nM | 31.9 ± 14
sgRNA knockout: sgATG7, 10000 nM | 14.7 ± 1.2
sgRNA knockout: sgERN1, 10 nM | 73.1 ± 6.6
sgRNA knockout: sgERN1, 100 nM | 57.3 ± 9.1
sgRNA knockout: sgERN1, 1000 nM | 33.6 ± 3
sgRNA knockout: sgERN1, 10000 nM | 11.6 ± 1.4
sgRNA knockout: sgHSF1, 10 nM | 87.5 ± 3.8
sgRNA knockout: sgHSF1, 100 nM | 51.9 ± 8.5
sgRNA knockout: sgHSF1, 1000 nM | 35.1 ± 3.9
sgRNA knockout: sgHSF1, 10000 nM | 17.2 ± 7.8
sgRNA knockout: sgHSF2, 10 nM | 75 ± 9.8
sgRNA knockout: sgHSF2, 100 nM | 61.2 ± 7.8
sgRNA knockout: sgHSF2, 1000 nM | 28 ± 2
sgRNA knockout: sgHSF2, 10000 nM | 9.66 ± 4.4
sgRNA knockout: sgKEAP1, 10 nM | 76.2 ± 9.5
sgRNA knockout: sgKEAP1, 100 nM | 53.45 ± 0.46
sgRNA knockout: sgKEAP1, 1000 nM | 36 ± 12
sgRNA knockout: sgKEAP1, 10000 nM | 12.9 ± 2.8
sgRNA knockout: sgNFE2L2, 10 nM | 81.9 ± 9.3
sgRNA knockout: sgNFE2L2, 100 nM | 59.7 ± 6
sgRNA knockout: sgNFE2L2, 1000 nM | 34.1 ± 6.3
sgRNA knockout: sgNFE2L2, 10000 nM | 14.4 ± 2.8
sgRNA knockout: sgSLC35F2, 10 nM | 67.9 ± 5
sgRNA knockout: sgSLC35F2, 100 nM | 47.6 ± 8.4
sgRNA knockout: sgSLC35F2, 1000 nM | 32.3 ± 5
sgRNA knockout: sgSLC35F2, 10000 nM | 14.1 ± 6.7
sgRNA knockout: sgXBP1, 10 nM | 73.9 ± 12
sgRNA knockout: sgXBP1, 100 nM | 56.7 ± 3.1
sgRNA knockout: sgXBP1, 1000 nM | 27.3 ± 1.3
sgRNA knockout: sgXBP1, 10000 nM | 12.9 ± 4
